Experimental findings from the supplement of paper PMC10849652 are described below.

Amino acid sequences for entries named in this document (tags omitted). A change or cut given only in a name is not applied to a line headed by its entry.
UniProt Q13227: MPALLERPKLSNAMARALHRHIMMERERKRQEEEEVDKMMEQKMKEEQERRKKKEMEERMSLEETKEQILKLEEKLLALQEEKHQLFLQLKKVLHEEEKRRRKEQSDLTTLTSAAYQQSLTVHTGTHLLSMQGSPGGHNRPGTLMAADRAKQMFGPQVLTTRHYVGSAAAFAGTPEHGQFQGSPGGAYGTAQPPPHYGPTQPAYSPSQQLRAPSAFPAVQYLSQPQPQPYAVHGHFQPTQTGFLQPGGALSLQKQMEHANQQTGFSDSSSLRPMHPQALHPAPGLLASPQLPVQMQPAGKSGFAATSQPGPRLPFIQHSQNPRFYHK
UniProt Q53GS7: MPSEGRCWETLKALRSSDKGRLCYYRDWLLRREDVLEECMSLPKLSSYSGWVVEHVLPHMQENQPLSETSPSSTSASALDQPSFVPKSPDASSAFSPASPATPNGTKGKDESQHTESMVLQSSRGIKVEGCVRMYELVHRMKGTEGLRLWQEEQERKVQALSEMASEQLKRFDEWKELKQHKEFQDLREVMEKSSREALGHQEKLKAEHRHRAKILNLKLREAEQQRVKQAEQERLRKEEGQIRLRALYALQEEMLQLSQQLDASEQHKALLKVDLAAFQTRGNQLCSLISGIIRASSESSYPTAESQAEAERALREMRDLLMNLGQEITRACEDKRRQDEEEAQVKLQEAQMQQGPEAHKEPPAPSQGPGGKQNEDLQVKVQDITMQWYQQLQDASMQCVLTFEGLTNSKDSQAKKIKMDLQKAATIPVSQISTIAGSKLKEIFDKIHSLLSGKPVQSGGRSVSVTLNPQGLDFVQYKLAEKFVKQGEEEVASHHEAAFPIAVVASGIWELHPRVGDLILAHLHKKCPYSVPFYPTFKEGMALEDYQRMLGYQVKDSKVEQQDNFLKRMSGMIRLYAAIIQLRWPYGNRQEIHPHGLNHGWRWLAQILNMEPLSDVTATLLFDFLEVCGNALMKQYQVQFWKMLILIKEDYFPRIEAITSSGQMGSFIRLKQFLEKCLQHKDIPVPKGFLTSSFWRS
UniProt Q5T7V8: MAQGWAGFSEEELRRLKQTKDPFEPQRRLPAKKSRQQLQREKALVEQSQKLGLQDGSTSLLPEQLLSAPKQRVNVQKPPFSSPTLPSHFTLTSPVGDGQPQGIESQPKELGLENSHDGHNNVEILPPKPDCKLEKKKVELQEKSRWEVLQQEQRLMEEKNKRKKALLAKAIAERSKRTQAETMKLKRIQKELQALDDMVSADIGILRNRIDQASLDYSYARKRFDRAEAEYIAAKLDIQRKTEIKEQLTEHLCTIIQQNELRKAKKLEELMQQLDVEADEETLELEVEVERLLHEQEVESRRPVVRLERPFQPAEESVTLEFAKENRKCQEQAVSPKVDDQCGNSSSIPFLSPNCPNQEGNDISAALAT
UniProt Q9H4A5: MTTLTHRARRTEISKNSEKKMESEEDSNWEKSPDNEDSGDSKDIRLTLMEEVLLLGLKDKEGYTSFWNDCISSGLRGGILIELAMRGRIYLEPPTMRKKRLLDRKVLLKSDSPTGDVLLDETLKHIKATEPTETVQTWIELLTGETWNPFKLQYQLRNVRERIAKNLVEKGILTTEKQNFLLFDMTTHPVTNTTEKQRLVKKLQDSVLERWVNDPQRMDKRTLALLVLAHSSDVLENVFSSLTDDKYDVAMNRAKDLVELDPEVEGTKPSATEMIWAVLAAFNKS
UniProt Q92896: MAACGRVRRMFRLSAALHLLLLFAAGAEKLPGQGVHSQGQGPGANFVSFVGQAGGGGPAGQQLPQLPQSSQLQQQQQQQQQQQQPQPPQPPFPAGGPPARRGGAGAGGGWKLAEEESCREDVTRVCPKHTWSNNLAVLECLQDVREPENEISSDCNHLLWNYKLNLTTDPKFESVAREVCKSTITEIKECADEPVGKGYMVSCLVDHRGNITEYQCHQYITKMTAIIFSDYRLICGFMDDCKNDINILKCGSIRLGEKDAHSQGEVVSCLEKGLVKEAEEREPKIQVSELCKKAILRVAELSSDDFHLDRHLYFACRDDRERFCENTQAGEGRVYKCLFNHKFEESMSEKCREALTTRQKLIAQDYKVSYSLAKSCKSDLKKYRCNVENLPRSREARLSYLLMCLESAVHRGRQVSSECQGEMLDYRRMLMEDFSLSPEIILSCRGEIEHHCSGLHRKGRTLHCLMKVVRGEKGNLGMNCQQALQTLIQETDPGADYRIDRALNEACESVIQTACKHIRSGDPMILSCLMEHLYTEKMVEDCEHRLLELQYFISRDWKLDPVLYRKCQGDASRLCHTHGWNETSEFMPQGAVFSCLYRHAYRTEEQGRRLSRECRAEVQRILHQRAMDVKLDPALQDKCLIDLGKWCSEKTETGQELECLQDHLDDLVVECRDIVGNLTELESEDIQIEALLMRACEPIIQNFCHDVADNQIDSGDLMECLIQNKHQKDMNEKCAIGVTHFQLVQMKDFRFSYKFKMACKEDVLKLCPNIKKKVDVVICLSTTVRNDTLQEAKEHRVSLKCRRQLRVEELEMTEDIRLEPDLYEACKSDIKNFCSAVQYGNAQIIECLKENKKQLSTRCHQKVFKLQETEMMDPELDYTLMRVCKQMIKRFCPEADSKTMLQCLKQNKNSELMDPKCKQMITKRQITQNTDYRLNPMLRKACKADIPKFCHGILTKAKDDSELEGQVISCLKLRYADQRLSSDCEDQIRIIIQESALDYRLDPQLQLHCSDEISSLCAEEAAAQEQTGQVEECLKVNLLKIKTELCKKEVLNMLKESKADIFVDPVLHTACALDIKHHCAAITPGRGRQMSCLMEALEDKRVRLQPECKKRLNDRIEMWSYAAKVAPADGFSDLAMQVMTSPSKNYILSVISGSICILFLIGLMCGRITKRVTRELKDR
UniProt Q9HAV7: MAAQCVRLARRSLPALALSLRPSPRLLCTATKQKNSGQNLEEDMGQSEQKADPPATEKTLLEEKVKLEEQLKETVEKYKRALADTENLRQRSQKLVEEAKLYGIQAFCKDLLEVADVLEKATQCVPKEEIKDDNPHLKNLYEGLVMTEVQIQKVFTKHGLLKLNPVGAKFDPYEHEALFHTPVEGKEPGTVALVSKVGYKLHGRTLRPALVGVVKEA
UniProt Q9BQQ3: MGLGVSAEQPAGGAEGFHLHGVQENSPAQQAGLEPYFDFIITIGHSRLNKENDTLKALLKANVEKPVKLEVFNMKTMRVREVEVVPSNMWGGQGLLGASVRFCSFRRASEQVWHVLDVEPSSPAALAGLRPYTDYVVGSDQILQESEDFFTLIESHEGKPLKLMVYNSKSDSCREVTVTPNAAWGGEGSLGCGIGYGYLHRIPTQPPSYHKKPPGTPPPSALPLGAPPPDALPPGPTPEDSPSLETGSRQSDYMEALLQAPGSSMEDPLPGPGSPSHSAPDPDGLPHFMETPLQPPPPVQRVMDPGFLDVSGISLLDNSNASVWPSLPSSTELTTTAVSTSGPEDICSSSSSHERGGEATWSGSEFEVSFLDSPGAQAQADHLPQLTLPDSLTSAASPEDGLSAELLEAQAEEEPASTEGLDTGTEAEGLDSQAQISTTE
UniProt Q9UJJ9: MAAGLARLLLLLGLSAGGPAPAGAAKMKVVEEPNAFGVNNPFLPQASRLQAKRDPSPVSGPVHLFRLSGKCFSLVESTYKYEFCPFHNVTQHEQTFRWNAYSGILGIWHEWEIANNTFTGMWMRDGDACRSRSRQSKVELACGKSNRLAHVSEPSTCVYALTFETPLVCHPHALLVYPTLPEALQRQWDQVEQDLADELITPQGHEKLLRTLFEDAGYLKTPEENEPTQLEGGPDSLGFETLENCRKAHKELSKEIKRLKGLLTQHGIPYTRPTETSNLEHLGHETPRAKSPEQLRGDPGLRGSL
UniProt Q9NPB8: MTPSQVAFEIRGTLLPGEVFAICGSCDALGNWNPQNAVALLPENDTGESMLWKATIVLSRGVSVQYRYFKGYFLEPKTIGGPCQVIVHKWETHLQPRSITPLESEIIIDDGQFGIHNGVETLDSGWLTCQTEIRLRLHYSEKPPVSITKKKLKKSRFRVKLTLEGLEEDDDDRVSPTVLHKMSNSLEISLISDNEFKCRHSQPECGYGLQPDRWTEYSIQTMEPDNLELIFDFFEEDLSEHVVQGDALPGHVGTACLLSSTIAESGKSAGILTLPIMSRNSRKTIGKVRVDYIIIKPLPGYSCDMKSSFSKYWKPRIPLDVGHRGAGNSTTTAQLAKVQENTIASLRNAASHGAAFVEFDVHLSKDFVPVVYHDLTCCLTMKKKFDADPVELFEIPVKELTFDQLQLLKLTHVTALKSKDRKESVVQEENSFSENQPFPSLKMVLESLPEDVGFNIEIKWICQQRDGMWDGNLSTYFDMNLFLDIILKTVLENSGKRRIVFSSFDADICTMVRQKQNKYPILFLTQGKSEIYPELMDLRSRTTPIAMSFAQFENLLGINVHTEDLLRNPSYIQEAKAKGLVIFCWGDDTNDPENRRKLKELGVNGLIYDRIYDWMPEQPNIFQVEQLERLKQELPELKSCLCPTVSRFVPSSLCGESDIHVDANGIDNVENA
UniProt Q9Y2X7: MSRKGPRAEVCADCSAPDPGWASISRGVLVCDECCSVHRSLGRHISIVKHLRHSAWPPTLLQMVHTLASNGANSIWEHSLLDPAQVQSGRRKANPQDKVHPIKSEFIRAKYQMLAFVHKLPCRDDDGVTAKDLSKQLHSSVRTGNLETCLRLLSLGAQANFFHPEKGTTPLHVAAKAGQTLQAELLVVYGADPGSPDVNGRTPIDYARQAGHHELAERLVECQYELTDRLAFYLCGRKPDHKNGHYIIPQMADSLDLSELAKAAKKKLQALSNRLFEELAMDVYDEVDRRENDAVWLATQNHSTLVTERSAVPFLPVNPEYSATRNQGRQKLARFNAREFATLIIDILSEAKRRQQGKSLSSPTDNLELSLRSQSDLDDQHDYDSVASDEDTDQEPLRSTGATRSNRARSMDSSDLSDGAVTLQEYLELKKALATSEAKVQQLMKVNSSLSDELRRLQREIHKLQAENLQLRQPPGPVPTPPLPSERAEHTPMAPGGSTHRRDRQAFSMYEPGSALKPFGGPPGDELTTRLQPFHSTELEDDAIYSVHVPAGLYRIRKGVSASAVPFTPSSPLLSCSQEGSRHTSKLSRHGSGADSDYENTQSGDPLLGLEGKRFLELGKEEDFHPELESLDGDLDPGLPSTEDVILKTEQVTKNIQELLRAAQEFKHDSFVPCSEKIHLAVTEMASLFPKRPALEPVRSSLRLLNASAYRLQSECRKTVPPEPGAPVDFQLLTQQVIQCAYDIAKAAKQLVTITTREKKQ
UniProt Q9HCN6: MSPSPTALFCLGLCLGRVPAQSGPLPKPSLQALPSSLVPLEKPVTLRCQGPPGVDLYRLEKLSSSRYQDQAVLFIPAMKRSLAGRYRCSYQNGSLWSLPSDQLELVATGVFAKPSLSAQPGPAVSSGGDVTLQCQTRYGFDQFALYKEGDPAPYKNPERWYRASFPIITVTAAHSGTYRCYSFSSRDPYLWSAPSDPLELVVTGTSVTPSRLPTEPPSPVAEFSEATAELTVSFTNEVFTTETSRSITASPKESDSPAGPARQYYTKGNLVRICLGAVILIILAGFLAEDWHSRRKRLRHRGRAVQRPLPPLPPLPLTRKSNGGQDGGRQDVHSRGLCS
UniProt O14908: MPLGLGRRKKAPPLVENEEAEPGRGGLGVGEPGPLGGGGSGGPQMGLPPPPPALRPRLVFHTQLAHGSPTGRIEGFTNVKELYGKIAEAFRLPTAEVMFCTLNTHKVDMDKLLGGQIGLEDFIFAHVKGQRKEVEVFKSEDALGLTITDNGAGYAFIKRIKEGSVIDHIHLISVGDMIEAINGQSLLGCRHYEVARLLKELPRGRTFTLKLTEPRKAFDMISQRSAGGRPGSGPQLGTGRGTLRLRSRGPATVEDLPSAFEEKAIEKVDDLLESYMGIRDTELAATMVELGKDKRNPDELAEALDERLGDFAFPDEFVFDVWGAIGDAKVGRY
UniProt Q8WWB7: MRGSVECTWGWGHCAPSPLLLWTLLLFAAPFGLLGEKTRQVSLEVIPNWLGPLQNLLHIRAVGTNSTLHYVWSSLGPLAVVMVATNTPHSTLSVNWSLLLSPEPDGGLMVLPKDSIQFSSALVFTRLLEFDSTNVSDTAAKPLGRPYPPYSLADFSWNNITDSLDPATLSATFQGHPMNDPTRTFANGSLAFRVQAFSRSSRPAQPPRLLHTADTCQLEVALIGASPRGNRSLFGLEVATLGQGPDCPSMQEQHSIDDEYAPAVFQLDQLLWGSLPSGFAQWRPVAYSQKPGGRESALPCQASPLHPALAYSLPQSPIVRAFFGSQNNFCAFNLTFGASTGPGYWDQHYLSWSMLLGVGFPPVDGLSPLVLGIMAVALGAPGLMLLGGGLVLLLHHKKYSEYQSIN
UniProt Q9BXV9: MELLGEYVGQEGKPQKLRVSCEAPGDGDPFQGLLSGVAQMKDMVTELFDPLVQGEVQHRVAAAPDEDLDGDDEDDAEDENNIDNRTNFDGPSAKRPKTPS
UniProt Q9Y4H4: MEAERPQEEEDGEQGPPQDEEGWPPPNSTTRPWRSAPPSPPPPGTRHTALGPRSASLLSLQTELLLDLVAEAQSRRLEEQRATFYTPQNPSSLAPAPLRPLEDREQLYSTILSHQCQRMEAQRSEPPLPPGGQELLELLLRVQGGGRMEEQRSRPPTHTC

What all share (assay): log2 fold change, soluble protein after heating vs DMSO (PISA); higher = thermal stabilisation; K562 cells, 10 uM, 30 min; active = over 0.2 and 3.5 SD of the protein, either way, in both replicates (recomputed)
Compound in assay [1]: C1=CC=C(C=C1)[C@H](COC2=CC3=C(C=C2)NC(=O)N3)NC(=O)C4=CC=CN(C4=O)CC5=CC(=C(C=C5)F)F
Summed up: (§1)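 Quantification of soluble protein used TMTpro 16plex LC-MS/MS, with channel sums equalised. Samples were the supernatant after 21,000xg for 90 min of pooled aliquots from K562 cells (2×10^6 cells/mL) treated with 10 μM compound for 30 min, heated for 3 min over 48°C-58°C, and extracted in PBS with 0.5% NP-40 at 4°C. Values, from duplicates, describe thermal stability against control samples on a log2 fold-change scale.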

Compound in assay [2]: CC1=C2C(=CC=C1)N=C(N(C2=O)C3=CC=CC=C3C)CN4C=NC5=C(N=CN=C54)N
Summed up:
as §1

Compound in assay [3]: Cc1sc2c(c1C)C(c1ccc(Cl)cc1)=N[C@@H](CC(=O)OC(C)(C)C)c1nnc(C)n1-2
An outline of the steps:
as §1

Compound in assay [4]: CC1=C(SC2=C1C(=N[C@H](C3=NN=C(N32)C)CC(=O)N)C4=CC=C(C=C4)Cl)C
Summed up: as §1

Compound in assay [5]: c1ccc([C@@H]2C[C@H]2NC2CCNCC2)cc1
Summed up:
as §1

The list shows a part of the results.

As for GPS2 (UniProt Q13227), the log2 fold change in assay [1] is inactive: 0.015; in assay [2], inactive: 0; in assay [3] it was inactive: 0.039.

Consider GOLGA6B (UniProt A6NDN3), for which the log2 fold change in assay [1] is inactive: 0.043; in assay [2], inactive: 0.19.

On to GMIP (UniProt Q9P107), for which the log2 fold change in assay [1] was inactive: 0.137; in assay [4] it was inactive: 0.003; in assay [3], inactive: -0.076; in assay [5] it was inactive: -0.17.

GOLGA1 (UniProt Q92805): the log2 fold change in assay [2] is inactive: -0.239.

For the target GMPR (UniProt P36959), the log2 fold change in assay [1] is inactive: 0.027; in assay [4], inactive: 0.043; in assay [2], inactive: -0.022; in assay [3] it was inactive: -0.017; in assay [5] it was inactive: 0.

Consider GLE1 (UniProt Q53GS7), for which the log2 fold change in assay [4] was inactive: -0.326; in assay [5] it was inactive: 0.019.

On to GLS2 (UniProt Q9UI32), for which the log2 fold change in assay [4] is inactive: 0.088; in assay [5] it was inactive: 0.035.

GOSR1 (UniProt E9PCW1): the log2 fold change in assay [1] was inactive: -0.054; in assay [4], inactive: -0.063; in assay [5] it was inactive: -0.003.

On to GORAB (UniProt Q5T7V8), for which the log2 fold change in assay [1] was inactive: -0.357; in assay [2], inactive: -0.017; in assay [3], inactive: -0.036.

As for GREB1 (UniProt Q4ZG55), the log2 fold change in assay [4] was inactive: 0.095; in assay [2] it was inactive: 0.175; in assay [3] it was inactive: 0.037; in assay [5], inactive: -0.1.

Consider GNL2 (UniProt Q13823), for which the log2 fold change is inactive: -0.081 in assay [1] and inactive: 0.05 in assay [3].

With GSE1 (UniProt Q14687), the log2 fold change in assay [1] is inactive: -0.151; in assay [4] it was inactive: 0.029; in assay [2] it was inactive: 0.008; in assay [5], active: 1.45.

For GOLPH3L (UniProt Q9H4A5), the log2 fold change in assay [2] is inactive: -0.195.

GIGYF1 (UniProt O75420): the log2 fold change in assay [4] is inactive: -0.028; in assay [5] it was inactive: 0.012.

GLG1 isoform 2 (UniProt Q92896): the log2 fold change in assay [1] is inactive: 0.02; in assay [4] it was inactive: 0.013; in assay [2], inactive: -0.001; in assay [3], inactive: -0.008; in assay [5], inactive: 0.019.

With GRK6 isoform 2 (UniProt P43250), the log2 fold change in assay [2] was inactive: 0.051.

As for GPT2 (UniProt Q8TD30), the log2 fold change in assay [4] was inactive: 0.266; in assay [2], inactive: 0.072; in assay [3], inactive: 0.028; in assay [5], inactive: -0.087.

Consider GRAP2 (UniProt O75791), for which the log2 fold change in assay [1] is inactive: -0.118; in assay [4], inactive: 0.183; in assay [2] it was inactive: 0.105; in assay [3], inactive: 0; in assay [5] it was inactive: -0.191.

For GRPEL1 (UniProt Q9HAV7), the log2 fold change in assay [1] was inactive: -0.018; in assay [4], inactive: 0.035; in assay [2], inactive: 0.085; in assay [3] it was inactive: -0.024; in assay [5], inactive: -0.017.

For the target GORASP1 (UniProt Q9BQQ3), the log2 fold change was inactive: -0.01 in assay [4] and inactive: 0.103 in assay [5].

For GNPTG (UniProt Q9UJJ9), the log2 fold change in assay [1] was inactive: 0.071; in assay [4], inactive: -0.055; in assay [3] it was inactive: -0.036; in assay [5], inactive: -0.068.

For the target GPCPD1 (UniProt Q9NPB8), the log2 fold change in assay [4] and in assay [5] was inactive: 0.042 each time.

With GIT1 isoform 3 (UniProt Q9Y2X7), the log2 fold change in assay [4] was inactive: -0.306; in assay [5] it was inactive: -0.041.

As for GP6 isoform 3 (UniProt Q9HCN6), the log2 fold change in assay [1] is inactive: 0.163; in assay [4] it was inactive: -0.07; in assay [5], inactive: 0.02.

As to GIPC1 (UniProt O14908), the log2 fold change is inactive: -0.039 in assay [1]; inactive: 0.023 in assay [4]; inactive: 0.119 in assay [2]; inactive: -0.006 in assay [3]; inactive: -0.009 in assay [5].

As for GLMP (UniProt Q8WWB7), the log2 fold change is inactive: -0.043 in assay [4], inactive: 0.008 in assay [2], inactive: -0.002 in assay [3] and inactive: -0.112 in assay [5].

Regarding GLRX2 isoform 2 (UniProt Q9NS18), the log2 fold change in assay [1] was inactive: -0.07; in assay [4], inactive: -0.101; in assay [2], inactive: -0.053; in assay [3] it was inactive: 0.005; in assay [5] it was inactive: 0.004.

GPAM (UniProt Q9HCL2): the log2 fold change in assay [3] was inactive: -0.18.

Regarding GPAA1 (UniProt E9PLG8), the log2 fold change in assay [1] is inactive: -0.018; in assay [4] it was inactive: 0.228; in assay [3] it was inactive: -0.08; in assay [5] it was inactive: -0.091.

Consider GON7 (UniProt Q9BXV9), for which the log2 fold change was inactive: -0.066 in assay [1]; inactive: -0.006 in assay [4]; inactive: -0.035 in assay [2]; inactive: -0.32 in assay [3]; inactive: 0.059 in assay [5].

On to GPSM3 (UniProt Q9Y4H4), for which the values for the log2 fold change in assay [4], in assay [2] and in assay [5] were inactive: 0.198, inactive: -0.095 and inactive: -0.019, respectively.
